In patent publication US20100068215A1 (published 2010):
These are yes or no findings as the source states them, for the method shown. Some binding calls cover weakened binding; strength is not graded here.

Molecular target: T1, GDF11 (UniProt O95390 299-407)
T1 sequence (looked up): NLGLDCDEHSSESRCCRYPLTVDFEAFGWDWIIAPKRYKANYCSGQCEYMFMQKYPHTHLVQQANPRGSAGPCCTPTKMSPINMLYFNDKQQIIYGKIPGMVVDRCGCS
Test: Biacore; ActRIIB-Fc captured by anti-hFc antibody, ligand injected
Protocol: Binding of certain ActRIIB-Fc proteins and GDF Traps to ligands was tested in a BiaCore™ assay.
The ActRIIB-Fc variants or wild-type protein were captured onto the system using an anti-hFc antibody. Ligands were injected and flowed over the captured receptor proteins.

B1: ActRIIB(A24N 20-134)-hFc (Fc fusion)
chain: GRGENETRECIYYNANWELERTNQSGLERCEGEQDKRLHCYASWRNSSGTIELVKKGCWLDDFNCYDRQECVATEENPQVYFCCCEGNFCNERFTHLPEAGGPEVTYEPPPTAPTGGG
notes: also called the A24N variant; not shown: human Fc domain (hFc)
binding: binds
